Experimental data as given in paper PMC5103071.
These are yes or no findings as the source states them, for the method shown. Binding seen in cells or lysates may run through a third protein. Some binding calls cover weakened binding; strength is not graded here. Where a sequence is shown, tags or fusion partners need not be part of it.

Amino acid sequences for entries named in this document (tags omitted). A change or cut given only in a name is not applied to a line headed by its entry. Chains listed by the source or under a name are the forms on record and can include a tag or linker.
myc–PIAS2α (O75928-2, form named): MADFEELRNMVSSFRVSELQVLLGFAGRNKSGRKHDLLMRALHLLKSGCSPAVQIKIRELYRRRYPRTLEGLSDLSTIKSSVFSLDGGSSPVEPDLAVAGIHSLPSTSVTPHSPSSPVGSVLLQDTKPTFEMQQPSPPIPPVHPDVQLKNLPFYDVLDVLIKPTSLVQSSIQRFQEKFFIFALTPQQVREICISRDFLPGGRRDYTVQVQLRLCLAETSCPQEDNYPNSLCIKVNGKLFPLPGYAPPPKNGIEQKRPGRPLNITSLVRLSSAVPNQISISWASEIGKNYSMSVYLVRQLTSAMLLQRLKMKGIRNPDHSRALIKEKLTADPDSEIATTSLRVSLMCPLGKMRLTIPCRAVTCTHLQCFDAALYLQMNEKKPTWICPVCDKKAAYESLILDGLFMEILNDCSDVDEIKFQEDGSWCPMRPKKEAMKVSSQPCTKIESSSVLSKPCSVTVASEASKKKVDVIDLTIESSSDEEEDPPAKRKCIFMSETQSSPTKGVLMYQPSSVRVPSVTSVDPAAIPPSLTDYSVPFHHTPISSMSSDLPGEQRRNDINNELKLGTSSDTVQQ

Biological target: T1, FLAG–gephyrin (rat) (UniProt Q03555)
T1 sequence: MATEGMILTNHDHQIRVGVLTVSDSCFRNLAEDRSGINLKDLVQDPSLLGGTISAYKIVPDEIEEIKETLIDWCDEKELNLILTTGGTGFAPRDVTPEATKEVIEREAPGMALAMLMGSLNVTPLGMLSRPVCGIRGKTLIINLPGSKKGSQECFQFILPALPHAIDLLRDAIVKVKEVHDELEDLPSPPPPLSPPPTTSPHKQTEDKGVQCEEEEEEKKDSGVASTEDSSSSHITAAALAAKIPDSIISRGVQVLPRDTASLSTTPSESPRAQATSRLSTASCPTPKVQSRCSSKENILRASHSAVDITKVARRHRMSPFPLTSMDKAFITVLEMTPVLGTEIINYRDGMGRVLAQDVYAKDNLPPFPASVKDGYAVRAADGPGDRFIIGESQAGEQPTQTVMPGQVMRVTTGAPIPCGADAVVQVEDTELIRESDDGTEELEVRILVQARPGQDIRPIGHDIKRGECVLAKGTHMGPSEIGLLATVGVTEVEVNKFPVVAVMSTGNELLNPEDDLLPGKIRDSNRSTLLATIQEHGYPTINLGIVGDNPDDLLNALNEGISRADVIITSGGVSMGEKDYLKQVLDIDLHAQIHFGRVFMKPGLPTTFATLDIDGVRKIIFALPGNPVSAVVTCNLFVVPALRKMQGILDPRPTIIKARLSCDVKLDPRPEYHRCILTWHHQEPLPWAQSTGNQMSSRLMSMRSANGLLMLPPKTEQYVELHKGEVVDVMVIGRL
Experiment: co-IP; FLAG–gephyrin and myc–PIAS co-expressed in HEK293 cells; IP with anti-FLAG antibody, WB for myc; protein G agarose, washes in high-salt buffer and EBC buffer (50 mM Tris pH 8.0, 120 mM NaCl, 0.5% NP-40)

With “myc–PIAS2α (from UniProt O75928-2 1-572)” the binding was “binds”.
